Experimental data: the supplement of paper PMC10849652
Some of the results follow.

By UniProt entry, the sequences of proteins in these tests, tags left out. Where a name states a change or a piece, a line headed by the entry shows the natural chain unless it says otherwise.
UniProt Q6P587: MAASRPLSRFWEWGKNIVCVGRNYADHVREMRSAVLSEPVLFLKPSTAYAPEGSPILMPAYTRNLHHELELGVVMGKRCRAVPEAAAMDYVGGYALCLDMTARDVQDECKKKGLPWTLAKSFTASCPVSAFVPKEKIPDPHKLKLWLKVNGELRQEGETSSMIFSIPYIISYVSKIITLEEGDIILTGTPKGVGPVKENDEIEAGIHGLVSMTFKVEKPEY
UniProt O95718: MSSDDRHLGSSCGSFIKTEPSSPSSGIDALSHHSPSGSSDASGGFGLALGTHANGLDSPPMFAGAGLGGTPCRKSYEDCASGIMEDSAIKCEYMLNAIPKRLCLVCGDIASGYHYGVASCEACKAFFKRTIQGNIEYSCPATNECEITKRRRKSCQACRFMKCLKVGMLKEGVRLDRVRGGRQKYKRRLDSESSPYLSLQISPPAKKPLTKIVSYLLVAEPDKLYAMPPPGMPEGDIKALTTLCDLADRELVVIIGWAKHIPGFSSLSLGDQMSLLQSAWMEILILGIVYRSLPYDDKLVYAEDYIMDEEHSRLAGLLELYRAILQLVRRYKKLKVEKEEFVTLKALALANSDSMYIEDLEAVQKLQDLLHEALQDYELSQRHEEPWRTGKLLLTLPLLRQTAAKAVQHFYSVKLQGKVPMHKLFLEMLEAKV
UniProt Q9NV70: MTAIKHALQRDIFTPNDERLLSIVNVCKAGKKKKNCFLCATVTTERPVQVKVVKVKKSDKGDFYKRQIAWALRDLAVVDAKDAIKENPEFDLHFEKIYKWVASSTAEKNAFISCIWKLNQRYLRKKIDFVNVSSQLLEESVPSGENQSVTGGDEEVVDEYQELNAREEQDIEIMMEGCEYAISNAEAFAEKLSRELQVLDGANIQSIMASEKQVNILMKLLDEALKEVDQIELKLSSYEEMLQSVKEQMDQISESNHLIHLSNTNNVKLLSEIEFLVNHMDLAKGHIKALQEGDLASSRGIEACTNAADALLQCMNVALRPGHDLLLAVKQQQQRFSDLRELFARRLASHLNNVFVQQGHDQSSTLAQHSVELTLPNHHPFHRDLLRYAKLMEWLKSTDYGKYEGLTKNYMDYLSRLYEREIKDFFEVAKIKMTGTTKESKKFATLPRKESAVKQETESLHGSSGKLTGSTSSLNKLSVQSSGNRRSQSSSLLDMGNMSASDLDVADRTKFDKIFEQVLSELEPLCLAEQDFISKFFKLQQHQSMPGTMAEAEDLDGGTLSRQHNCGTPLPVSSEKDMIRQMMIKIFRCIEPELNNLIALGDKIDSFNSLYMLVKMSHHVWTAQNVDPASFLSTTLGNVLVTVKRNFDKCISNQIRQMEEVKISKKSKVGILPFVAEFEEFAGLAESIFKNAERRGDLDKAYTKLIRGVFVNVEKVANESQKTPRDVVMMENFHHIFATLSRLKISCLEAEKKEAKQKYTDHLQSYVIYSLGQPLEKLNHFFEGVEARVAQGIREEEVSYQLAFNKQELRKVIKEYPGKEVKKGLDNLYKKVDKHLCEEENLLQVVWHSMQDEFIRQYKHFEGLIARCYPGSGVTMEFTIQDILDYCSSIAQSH
UniProt Q96ND0: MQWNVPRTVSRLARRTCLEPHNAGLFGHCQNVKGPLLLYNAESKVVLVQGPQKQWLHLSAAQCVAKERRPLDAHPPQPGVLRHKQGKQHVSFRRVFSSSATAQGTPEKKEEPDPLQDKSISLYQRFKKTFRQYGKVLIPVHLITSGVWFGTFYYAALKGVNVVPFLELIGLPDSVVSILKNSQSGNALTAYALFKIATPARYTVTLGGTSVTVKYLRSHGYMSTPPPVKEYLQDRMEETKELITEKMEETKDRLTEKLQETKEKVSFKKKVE
UniProt Q96B26, whole entry, looked up: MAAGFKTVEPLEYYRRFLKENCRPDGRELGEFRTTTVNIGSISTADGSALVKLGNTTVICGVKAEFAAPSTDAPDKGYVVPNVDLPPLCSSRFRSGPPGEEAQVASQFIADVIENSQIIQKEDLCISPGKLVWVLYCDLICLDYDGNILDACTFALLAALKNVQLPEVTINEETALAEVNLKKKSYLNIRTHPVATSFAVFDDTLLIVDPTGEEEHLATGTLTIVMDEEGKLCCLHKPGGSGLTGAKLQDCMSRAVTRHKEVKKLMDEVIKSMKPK
UniProt Q9NQT4, whole entry, looked up: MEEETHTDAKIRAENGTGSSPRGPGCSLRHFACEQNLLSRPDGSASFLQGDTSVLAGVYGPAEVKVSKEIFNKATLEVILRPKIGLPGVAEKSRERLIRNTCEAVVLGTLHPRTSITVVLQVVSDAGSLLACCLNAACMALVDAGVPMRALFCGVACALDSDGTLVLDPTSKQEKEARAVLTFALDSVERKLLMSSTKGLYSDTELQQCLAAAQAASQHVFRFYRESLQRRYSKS
UniProt Q9H501: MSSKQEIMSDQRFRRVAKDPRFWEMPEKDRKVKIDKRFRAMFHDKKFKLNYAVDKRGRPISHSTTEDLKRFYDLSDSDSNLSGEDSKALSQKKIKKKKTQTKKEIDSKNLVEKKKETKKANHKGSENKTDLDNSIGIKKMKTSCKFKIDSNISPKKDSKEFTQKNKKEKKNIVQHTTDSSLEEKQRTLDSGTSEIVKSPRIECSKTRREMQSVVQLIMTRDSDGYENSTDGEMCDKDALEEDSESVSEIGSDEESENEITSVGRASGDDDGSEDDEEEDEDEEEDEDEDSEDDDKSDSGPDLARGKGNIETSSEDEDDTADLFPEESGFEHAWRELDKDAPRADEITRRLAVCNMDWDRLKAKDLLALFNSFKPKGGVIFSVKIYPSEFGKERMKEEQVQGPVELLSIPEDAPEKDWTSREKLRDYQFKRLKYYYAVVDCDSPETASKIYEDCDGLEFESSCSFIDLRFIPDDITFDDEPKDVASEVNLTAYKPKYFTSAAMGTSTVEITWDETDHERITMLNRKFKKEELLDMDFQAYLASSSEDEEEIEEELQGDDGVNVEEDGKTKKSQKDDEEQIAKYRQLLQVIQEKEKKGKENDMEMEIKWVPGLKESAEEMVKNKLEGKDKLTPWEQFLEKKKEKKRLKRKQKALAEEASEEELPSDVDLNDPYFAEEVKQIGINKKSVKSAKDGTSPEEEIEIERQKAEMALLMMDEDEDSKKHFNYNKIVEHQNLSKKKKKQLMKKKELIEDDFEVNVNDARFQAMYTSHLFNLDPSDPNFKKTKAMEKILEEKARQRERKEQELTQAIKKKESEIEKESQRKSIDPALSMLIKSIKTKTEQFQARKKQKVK
UniProt P11474: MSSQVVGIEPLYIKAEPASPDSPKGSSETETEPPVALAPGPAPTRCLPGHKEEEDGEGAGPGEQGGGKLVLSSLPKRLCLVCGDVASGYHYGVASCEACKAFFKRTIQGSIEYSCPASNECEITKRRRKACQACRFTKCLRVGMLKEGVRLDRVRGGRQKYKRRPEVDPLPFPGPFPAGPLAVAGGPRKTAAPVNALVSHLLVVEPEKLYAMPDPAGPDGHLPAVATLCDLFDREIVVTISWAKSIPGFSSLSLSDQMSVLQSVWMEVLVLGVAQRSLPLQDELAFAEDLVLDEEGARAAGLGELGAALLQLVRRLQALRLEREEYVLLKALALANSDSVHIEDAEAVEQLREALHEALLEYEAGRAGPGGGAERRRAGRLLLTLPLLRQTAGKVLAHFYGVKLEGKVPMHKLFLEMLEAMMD
UniProt Q9GZU8: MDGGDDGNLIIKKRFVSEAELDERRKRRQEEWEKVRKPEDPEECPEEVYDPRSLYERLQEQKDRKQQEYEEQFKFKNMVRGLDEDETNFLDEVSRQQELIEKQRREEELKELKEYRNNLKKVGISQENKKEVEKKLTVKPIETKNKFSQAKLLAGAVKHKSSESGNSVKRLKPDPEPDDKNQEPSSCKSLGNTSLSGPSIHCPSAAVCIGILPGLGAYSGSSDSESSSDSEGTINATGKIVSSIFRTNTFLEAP
UniProt Q96PL5: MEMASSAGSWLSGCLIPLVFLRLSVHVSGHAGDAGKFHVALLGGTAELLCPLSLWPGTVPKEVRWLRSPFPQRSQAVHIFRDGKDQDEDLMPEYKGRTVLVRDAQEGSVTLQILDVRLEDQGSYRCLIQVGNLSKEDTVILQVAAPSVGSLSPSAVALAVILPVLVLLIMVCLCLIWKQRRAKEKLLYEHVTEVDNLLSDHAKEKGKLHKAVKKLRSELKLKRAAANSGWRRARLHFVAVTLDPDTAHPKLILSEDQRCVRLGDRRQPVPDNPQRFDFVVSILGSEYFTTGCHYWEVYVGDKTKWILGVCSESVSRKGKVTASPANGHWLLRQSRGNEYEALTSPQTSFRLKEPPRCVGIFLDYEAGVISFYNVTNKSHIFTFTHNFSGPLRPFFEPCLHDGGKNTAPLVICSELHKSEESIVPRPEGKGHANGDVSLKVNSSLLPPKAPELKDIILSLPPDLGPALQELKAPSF
UniProt Q14320: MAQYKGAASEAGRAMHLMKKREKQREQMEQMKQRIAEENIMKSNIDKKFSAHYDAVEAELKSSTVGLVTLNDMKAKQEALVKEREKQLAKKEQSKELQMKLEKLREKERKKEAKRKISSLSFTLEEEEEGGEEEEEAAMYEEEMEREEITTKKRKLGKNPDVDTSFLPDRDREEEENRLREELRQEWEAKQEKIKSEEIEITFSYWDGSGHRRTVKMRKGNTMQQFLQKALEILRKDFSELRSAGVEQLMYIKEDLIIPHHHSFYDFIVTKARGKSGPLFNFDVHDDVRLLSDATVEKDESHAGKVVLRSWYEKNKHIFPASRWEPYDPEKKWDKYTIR
UniProt Q86UY5: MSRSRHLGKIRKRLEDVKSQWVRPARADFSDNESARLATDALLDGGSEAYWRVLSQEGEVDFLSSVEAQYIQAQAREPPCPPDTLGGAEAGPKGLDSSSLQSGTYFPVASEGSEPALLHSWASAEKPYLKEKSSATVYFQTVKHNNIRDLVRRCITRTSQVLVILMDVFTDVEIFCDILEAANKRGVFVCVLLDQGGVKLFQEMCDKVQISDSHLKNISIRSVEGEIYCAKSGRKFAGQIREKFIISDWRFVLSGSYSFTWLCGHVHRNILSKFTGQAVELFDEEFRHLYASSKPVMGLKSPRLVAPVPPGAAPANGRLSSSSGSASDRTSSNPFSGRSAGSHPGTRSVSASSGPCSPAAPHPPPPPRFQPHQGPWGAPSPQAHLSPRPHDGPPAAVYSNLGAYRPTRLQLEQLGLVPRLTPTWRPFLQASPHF
UniProt O60645: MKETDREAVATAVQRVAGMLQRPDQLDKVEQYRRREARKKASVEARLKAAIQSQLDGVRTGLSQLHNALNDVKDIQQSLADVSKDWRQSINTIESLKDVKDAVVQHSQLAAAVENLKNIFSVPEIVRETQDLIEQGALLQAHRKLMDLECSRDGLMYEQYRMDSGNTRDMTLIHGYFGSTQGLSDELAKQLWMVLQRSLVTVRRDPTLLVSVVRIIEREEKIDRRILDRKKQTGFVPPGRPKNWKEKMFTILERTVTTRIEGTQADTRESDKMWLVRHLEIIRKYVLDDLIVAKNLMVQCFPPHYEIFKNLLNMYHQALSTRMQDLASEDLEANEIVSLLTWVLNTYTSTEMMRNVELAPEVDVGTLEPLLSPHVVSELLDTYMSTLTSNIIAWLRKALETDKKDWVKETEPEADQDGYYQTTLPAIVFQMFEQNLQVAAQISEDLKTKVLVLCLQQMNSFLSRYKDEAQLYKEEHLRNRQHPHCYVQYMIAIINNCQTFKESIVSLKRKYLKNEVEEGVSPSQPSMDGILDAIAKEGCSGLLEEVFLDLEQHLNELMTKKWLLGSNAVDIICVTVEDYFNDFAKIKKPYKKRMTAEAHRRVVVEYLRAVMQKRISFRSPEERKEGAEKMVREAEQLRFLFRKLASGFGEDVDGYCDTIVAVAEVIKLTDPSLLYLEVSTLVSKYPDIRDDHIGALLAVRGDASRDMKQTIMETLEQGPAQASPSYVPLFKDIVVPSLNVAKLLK
UniProt Q9UPT5: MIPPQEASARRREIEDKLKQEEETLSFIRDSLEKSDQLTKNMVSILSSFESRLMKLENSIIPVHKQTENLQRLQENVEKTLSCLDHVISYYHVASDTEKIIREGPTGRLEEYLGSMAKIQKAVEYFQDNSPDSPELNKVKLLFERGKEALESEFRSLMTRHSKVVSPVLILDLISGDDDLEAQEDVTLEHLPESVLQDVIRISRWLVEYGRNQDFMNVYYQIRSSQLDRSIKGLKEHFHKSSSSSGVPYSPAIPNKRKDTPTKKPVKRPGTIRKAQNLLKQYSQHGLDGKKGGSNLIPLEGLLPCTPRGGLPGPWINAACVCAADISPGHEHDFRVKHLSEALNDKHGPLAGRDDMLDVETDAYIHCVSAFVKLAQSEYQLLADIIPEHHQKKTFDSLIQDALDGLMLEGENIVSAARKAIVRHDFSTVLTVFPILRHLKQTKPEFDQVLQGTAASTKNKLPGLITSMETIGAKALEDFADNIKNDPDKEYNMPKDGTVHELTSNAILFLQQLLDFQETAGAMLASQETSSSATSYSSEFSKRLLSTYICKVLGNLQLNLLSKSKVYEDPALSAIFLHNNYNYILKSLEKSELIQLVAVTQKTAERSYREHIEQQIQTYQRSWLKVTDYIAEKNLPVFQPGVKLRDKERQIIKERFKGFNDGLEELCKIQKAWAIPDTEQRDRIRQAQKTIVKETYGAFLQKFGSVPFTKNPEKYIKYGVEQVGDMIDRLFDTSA

Experiments:
Assay in all cases: log2 fold change, soluble protein after heating vs DMSO (PISA); higher = thermal stabilisation; K562 lysate, 10 uM; active = over 0.2 and 3.5 SD of the protein, either way, in both replicates (recomputed)
[1] = compound: CN1CC[C@H](c2c(O)cc(O)c3c(=O)cc(-c4ccccc4Cl)oc23)[C@H](O)C1 [alvocidib]
Outline: (§1)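 Pellets of K562 cells were dounce-homogenised in PBS pH 7.4 with 1 mM MgCl2, and the crude extract was held at 1 mg/mL protein for a 30 min treatment with 10 μM compound. Aliquots were heated for 3 min over 48°C-58°C and pooled before NP-40 was added to 0.5% at 4°C. The supernatant from 21,000xg for 90 min was quantified by TMTpro 16plex LC-MS/MS with channel sums equalised. Values are reported from duplicates as log-two fold change in thermal stability relative to solvent controls.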

[2] = compound: CN1CCc2c(c3ccccc3n2Cc2ccc(C(=O)NO)cc2)C1 [Tubastatin A]
Outline: as §1

[3] = compound: CNC(=O)C1=CC=CC=C1NC2=NC(=NC=C2Cl)NC3=C(C=C(C=C3)N4CCOCC4)OC
Outline: as §1

[4] = compound: CNC(=O)c1ccc(Nc2ncc(C(F)(F)F)c(NCc3nccnc3N(C)S(C)(=O)=O)n2)cc1 [defactinib]
Outline: as §1

[5] = compound: CNc1nc(-c2ccc3c(N)n[nH]c3c2)cc(N2C[C@@H](C(=O)NC3CCCCC3)CC[C@H]2C)n1
Outline: as §1

[6] = compound: COC(=O)N[C@@H](C)CNc1nccc(-c2cn(C(C)C)nc2-c2cc(Cl)cc(NS(C)(=O)=O)c2F)n1 [encorafenib]
Outline: as §1

[7] = compound: COC(=O)[C@H](CCSC)NC(=O)C1=C(C=C(C=C1)NC[C@H](CS)N)C2=CC=CC=C2
Outline: as §1

[8] = compound: COc1cc(Nc2ncc3c(n2)-c2ccc(Cl)cc2C(c2c(F)cccc2OC)=NC3)ccc1C(=O)O [alisertib]
Outline: as §1

[9] = compound: COc1cc2nc(-c3cc(F)ccc3O)nc(N[C@@H]3CNC[C@H]3C(C)(C)O)c2cc1OC
Outline: as §1

[10] = compound: COc1cc2ncnc(Nc3ccc(F)c(Cl)c3)c2cc1OCCCN1CCOCC1 [gefitinib]
Outline: as §1

Measured: log2 fold change

FAHD1 (UniProt Q6P587)
inactive: [1] -0.122 | [2] 0.136 | [3] 0.05 | [4] -0.066 | [5] 0.165 | [6] -0.002 | [7] 0.043 | [8] -0.08 | [9] -0.002 | [10] -0.01

ESRRB isoform 1 (UniProt O95718)
inactive: [1] 0.233 | [2] -0.269 | [3] -0.011

FAM207A (UniProt Q9NSI2)
inactive: [1] -0.004 | [2] 0.034 | [3] 0.026 | [4] -0.025 | [5] 0.025 | [6] -0.002 | [7] -0.033 | [8] 0.014 | [9] 0.014 | [10] -0.009

EXOC1 (UniProt Q9NV70)
inactive: [1] 0.01 | [2] -0.139 | [3] 0.006 | [4] 0.022 | [5] -0.086 | [6] 0.014 | [7] 0.012 | [8] 0.007 | [9] -0.015 | [10] 0.015

ERMP1 (UniProt Q7Z2K6)
inactive: [1] -0.024 | [2] 0.065 | [3] 0.032 | [4] -0.022 | [5] 0.058 | [6] 0.044 | [7] -0.035 | [8] -0.002 | [9] -0.058 | [10] 0.01

FAM234A (UniProt Q9H0X4)
inactive: [1] -0.024 | [2] 0.083 | [3] 0.025 | [4] -0.038 | [5] -0.001 | [6] 0.013 | [7] -0.04 | [8] -0.018 | [9] -0.014 | [10] -0.001

ERLEC1 (UniProt Q96DZ1)
inactive: [1] 0.006 | [2] 0.03 | [3] -0.012 | [4] -0.016 | [5] -0.009 | [6] 0.054 | [7] -0.019 | [8] -0.062 | [9] -0.008 | [10] 0.084

FAM210A (UniProt Q96ND0)
inactive: [1] 0.022 | [2] 0.01 | [3] 0.03 | [4] 0.018 | [5] 0.043 | [6] -0.043 | [7] 0.007 | [8] 0.01 | [9] 0.011 | [10] -0.016

EXOSC8 (UniProt Q96B26)
inactive: [1] 0.049 | [2] -0.049 | [3] -0.01 | [4] 0.034 | [5] -0.059 | [6] 0.018 | [7] 0 | [8] 0.036 | [9] 0.015 | [10] 0

FADS3 (UniProt Q9Y5Q0)
inactive: [1] -0.051 | [2] 0.1 | [3] -0.047 | [4] 0.198 | [5] -0.08 | [6] 0.097 | [7] 0.096 | [8] 0 | [9] 0 | [10] 0.063

FAM107B isoform 2 (UniProt Q9H098)
inactive: [1] 0 | [2] 0.055 | [3] -0.037 | [4] 0.106 | [5] -0.033 | [6] 0.049 | [7] -0.034 | [8] 0.029 | [9] 0.111 | [10] 0.028

EXTL2 (UniProt Q9UBQ6)
inactive: [1] -0.016 | [2] 0 | [3] 0.009 | [4] 0.037 | [5] 0.104 | [6] 0.168 | [7] -0.048 | [8] -0.021 | [9] -0.005 | [10] -0.111

Two entries drawn at random from those above:
FAM107B isoform 2 (UniProt Q9H098)
inactive: [1] 0 | [2] 0.055 | [3] -0.037 | [4] 0.106 | [5] -0.033 | [6] 0.049 | [7] -0.034 | [8] 0.029 | [9] 0.111 | [10] 0.028

FADS3 (UniProt Q9Y5Q0)
inactive: [1] -0.051 | [2] 0.1 | [3] -0.047 | [4] 0.198 | [5] -0.08 | [6] 0.097 | [7] 0.096 | [8] 0 | [9] 0 | [10] 0.063

(list continues)

EXOSC5 (UniProt Q9NQT4)
inactive: [1] -0.004 | [2] 0.048 | [3] -0.057 | [4] 0.056 | [5] 0.011 | [6] 0.01 | [7] -0.017 | [8] 0.002 | [9] 0.013 | [10] 0.003

EXOSC2 (UniProt Q13868)
inactive: [1] -0.012 | [2] 0.047 | [3] 0.001 | [4] -0.016 | [5] -0.018 | [6] -0.01 | [7] -0.027 | [8] 0.007 | [9] 0.006 | [10] -0.032

ESF1 (UniProt Q9H501)
inactive: [1] 0.005 | [2] 0.007 | [3] 0.049 | [4] 0.013 | [5] -0.011 | [6] 0.071 | [7] -0.006 | [8] -0.016 | [9] -0.123 | [10] -0.006

ESRRA (UniProt P11474)
inactive: [1] 0.167 | [2] -0.169 | [3] 0.033 | [4] -0.086 | [5] -0.04 | [6] 0.048 | [7] -0.072 | [8] -0.045 | [9] -0.029 | [10] 0.07

FAM49B (UniProt Q9NUQ9)
inactive: [1] -0.004 | [2] 0.021 | [3] -0.01 | [4] 0.037 | [5] 0.011 | [6] 0.029 | [7] -0.06 | [8] 0.02 | [9] -0.001 | [10] 0.013

EWSR1 isoform 5 (UniProt Q01844)
inactive: [1] -0.002 | [2] 0.101 | [3] -0.017 | [4] -0.011 | [5] 0.021 | [6] -0.022 | [7] -0.036 | [8] 0.049 | [9] -0.005 | [10] -0.003

EZR (UniProt P15311)
inactive: [1] 0.058 | [2] 0.05 | [3] -0.012 | [4] -0.007 | [5] 0.003 | [6] -0.04 | [7] 0.006 | [8] -0.009 | [9] -0.005 | [10] -0.009

FAM192A (UniProt Q9GZU8)
inactive: [1] -0.032 | [2] -0.031 | [3] -0.008 | [4] -0.035 | [5] 0.037 | [6] 0.046 | [7] -0.064 | [8] -0.004 | [9] -0.004 | [10] 0.038

ERMAP (UniProt Q96PL5)
inactive: [1] -0.057 | [2] 0.025 | [3] 0.013 | [4] -0.081 | [5] -0.002 | [6] -0.029 | [7] -0.04 | [8] -0.016 | [9] 0.059 | [10] -0.054

FAM50A (UniProt Q14320)
inactive: [1] 0.01 | [2] 0.015 | [3] 0 | [4] -0.018 | [5] 0.001 | [6] 0.024 | [7] 0.011 | [8] -0.012 | [9] 0.015 | [10] -0.002

ESYT1 isoform 2 (UniProt Q9BSJ8)
inactive: [1] -0.019 | [2] 0.042 | [3] -0.011 | [4] 0.015 | [5] -0.022 | [6] 0.023 | [7] 0.035 | [8] -0.001 | [9] 0.183 | [10] -0.031

FAM83A (UniProt Q86UY5)
inactive: [1] -0.095 | [2] -0.039 | [3] 0.061 | [4] -0.055 | [5] 0.015 | [6] 0.02 | [7] 0.07 | [8] 0.02 | [9] -0.013 | [10] 0.017

ERLIN1 (UniProt O75477)
active: [7] -0.216
inactive: [1] 0.006 | [2] -0.058 | [3] -0.001 | [4] -0.024 | [5] -0.066 | [6] 0.086 | [8] -0.007 | [9] -0.028 | [10] 0.035

EZH2 isoform 2 (UniProt Q15910)
inactive: [1] 0.023 | [2] -0.156 | [3] -0.052 | [4] 0.093 | [5] 0.009 | [6] -0.041 | [7] 0.055 | [8] -0.158 | [9] 0.011 | [10] 0.077

EXOC3 (UniProt O60645)
inactive: [1] 0.011 | [2] -0.063 | [3] 0.009 | [4] 0.031 | [5] -0.037 | [6] 0.001 | [7] 0.07 | [8] 0.032 | [9] -0.023 | [10] -0.001

EXOC2 (UniProt Q96KP1)
inactive: [1] 0.025 | [2] -0.107 | [3] -0.012 | [4] 0.046 | [5] -0.048 | [6] 0.031 | [7] 0.027 | [8] 0 | [9] 0.007 | [10] 0.005

EXOC7 (UniProt Q9UPT5)
inactive: [1] -0.011 | [2] -0.022 | [3] 0.033 | [4] -0.018 | [5] 0.06 | [6] 0.005 | [7] -0.038 | [8] 0.006 | [9] 0.007 | [10] -0.018

EXOSC6 (UniProt Q5RKV6)
inactive: [1] 0.015 | [2] 0.056 | [3] 0.026 | [4] -0.008 | [5] 0.049 | [6] -0.014 | [7] -0.028 | [8] 0.033 | [9] 0.007 | [10] -0.042
